Earlier results as cited in patent US20260144805A1, “CANNABIDIOL COMPOSITIONS FOR USE IN THE TREATMENT OF NEURODEGENERATIVE AND NEUROLOGICAL DISORDERS” (JAZZ PHARMACEUTICALS RESEARCH UK LIMITED, priority 2022, published 2026).
Read-outs that look alike come from different tables or passages of the source.

Conditions: cited from earlier work

**Q.** Which solubility (organic solvents) does the source give for `C=C(C)[C@@H]1CCC(C)=C[C@H]1c1c(O)cc(CCCCC)cc1O` [sCBD, 2-[(1R,6R)-3-Methyl-6-(1-methylethenyl)-2-cyclohexen-1-yl]-5-pentyl-1,3-benzenediol] here?
**A.** soluble in organic solvents

**Q.** And the solubility (water)?
**A.** insoluble in water
